Results taken from PMC7352286, “The Heterooligomerization of Human Small Heat Shock Proteins Is Controlled by Conserved Motif Located in the N-Terminal Domain” (International Journal of Molecular Sciences, 2020).
Changes are numbered by the printed parent chain. No constants are given. Whether binding was seen depends on the method and setting.

Protein sequences, listed by entry. Tags and fused reporters are not part of them.
UniProt P04792: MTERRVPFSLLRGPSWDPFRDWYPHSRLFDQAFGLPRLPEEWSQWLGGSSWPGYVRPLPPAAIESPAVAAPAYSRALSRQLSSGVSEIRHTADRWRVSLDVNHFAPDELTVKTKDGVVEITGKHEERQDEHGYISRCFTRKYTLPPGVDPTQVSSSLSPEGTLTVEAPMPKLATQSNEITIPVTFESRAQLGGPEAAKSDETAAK

How the values were obtained:
[1] = target: T1, HspB8 R29A (human) (UniProt Q9UJY1); test: SEC; equimolar mixture (30–40 µM each), reduced, preincubated 1 h at 4 °C in buffer B (20 mM Tris-acetate, 150 mM NaCl, 0.1 mM EDTA, 15 mM mercaptoethanol); Superdex 200 HR 10/30; fractions on SDS gels; correlation coefficient and molar ratio from band intensities; both purified
T1 sequence: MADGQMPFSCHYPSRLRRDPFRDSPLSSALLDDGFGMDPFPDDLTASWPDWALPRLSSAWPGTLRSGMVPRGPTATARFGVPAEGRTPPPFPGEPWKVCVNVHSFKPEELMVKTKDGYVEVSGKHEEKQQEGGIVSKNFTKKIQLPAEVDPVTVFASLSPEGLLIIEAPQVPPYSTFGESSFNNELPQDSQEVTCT

[2] = target: T2, HspB8 Δ28–32 (human) (UniProt Q9UJY1); test: as above
T2 sequence: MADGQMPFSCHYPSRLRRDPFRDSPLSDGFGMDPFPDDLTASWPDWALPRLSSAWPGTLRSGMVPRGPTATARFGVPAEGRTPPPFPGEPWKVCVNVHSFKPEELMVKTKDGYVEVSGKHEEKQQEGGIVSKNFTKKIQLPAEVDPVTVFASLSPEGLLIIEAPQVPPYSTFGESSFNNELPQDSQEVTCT

[3] = target: T1, HspB8 R29A (human); test: SEC; equimolar mixture (30–40 µM each), reduced, preincubated 1 h at 42 °C in buffer B (20 mM Tris-acetate, 150 mM NaCl, 0.1 mM EDTA, 15 mM mercaptoethanol); Superdex 200 HR 10/30; fractions on SDS gels; correlation coefficient and molar ratio from band intensities; both purified
[4] = target: T2, HspB8 Δ28–32 (human); test: as above
[5] = target: T3, HspB6 R27A (human, UniProt O14558 1-160, R27A); test: condition: only preincubated at 4 °C (without heating); 30–40 µM each; SEC; equimolar mixture (30–40 µM each), reduced, preincubated 1 h at 4 °C in buffer B (20 mM Tris-acetate, 150 mM NaCl, 0.1 mM EDTA, 15 mM mercaptoethanol); Superdex 200 HR 10/30; fractions on SDS gels; correlation coefficient and molar ratio from band intensities; both purified
T3 construct: also called R/A HspB6; R/A mutant of HspB6; source: E. coli BL21(DE3) pLysS, purified (ammonium sulfate, HiTrap Phenyl-Sepharose, Superdex 200)
T3 sequence (looked up): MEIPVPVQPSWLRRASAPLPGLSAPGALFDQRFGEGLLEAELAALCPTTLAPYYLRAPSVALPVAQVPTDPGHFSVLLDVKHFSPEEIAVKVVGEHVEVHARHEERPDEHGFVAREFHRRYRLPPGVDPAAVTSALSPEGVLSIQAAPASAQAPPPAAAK

[6] = target: T4, HspB6 Δ26–30 (human, UniProt O14558 1-160, Δ26–30); test: as above
T4 construct: also called Δ HspB6; Δ mutant of HspB6; source: E. coli BL21(DE3) pLysS, purified (ammonium sulfate, HiTrap Phenyl-Sepharose, Superdex 200)
T4 sequence (looked up): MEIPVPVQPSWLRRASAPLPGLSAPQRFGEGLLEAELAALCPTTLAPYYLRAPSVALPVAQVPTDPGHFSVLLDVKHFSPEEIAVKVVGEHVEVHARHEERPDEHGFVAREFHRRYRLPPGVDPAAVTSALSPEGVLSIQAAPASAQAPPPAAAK

[7] = target: T5, wild-type human small heat shock protein HspB6 (human) (UniProt O14558); test: as above
T5 sequence: T3 sequence (looked up) with A27R

[8] = target: T6, HspB5 R22A (human) (UniProt P02511); test: condition: only preincubated at 4 °C (without heating); 30–40 µM each; ion-exchange chromatography; equimolar mixture (30–40 µM each), reduced, preincubated 1 h at 4 °C in buffer D (20 mM phosphate pH 6.8, 0.1 mM PMSF, 15 mM mercaptoethanol); DEAE HiTrap, gradient 0–500 mM NaCl; fractions on SDS gels; correlation coefficient and molar ratio from band intensities; both purified
T6 sequence: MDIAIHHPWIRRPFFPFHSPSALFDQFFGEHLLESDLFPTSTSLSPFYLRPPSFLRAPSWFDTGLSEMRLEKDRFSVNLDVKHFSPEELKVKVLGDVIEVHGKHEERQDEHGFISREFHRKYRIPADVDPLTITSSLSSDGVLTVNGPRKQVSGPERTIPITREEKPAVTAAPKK

[9] = target: T7, HspB5 Δ21–25 (human) (UniProt P02511); test: as above
T7 sequence: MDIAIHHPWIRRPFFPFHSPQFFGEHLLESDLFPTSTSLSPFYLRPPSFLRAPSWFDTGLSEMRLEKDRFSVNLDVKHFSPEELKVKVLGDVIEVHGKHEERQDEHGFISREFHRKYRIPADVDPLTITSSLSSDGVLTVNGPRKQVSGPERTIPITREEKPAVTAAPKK

[10] = target: T8, wild-type human small heat shock protein HspB5 (human) (UniProt P02511); test: as above
T8 sequence: T6 sequence with A22R

Substance: wild-type human small heat shock protein HspB1 (from UniProt P04792 1-205)
- binding [1]: no binding (tested: 30–40 µM each)
- binding [2]: no binding (tested: 30–40 µM each)
- binding [3]: no binding (tested: 30–40 µM each)
- binding [4]: no binding (tested: 30–40 µM each)
- binding [5]: no binding
- binding [6]: no binding
- binding [7]: no binding
- binding [8]: no binding
- binding [9]: no binding
- binding [10]: no binding
